# Reference: the supplement of paper PMC12819154, “High-throughput peptide-centric local stability assay extends protein–ligand identification to membrane proteins, tissues and bacteria” (Nature Structural & Molecular Biology, 2025)
# Sequences of proteins named here, by UniProt entry; tags and fusion partners are left off. A change or cut given only in a name is not applied to a line headed by its entry.
# UniProt Q8WWV3: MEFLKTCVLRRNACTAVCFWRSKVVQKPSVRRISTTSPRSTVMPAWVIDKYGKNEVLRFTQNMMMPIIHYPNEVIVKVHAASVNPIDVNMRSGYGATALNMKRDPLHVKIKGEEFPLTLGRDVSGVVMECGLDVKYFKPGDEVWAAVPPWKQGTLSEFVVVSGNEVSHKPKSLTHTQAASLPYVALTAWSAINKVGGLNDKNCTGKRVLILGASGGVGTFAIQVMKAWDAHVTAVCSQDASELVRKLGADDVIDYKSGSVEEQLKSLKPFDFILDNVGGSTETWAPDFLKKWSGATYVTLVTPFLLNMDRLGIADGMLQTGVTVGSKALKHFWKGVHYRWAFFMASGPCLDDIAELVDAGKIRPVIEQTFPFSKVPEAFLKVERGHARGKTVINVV
# UniProt Q8WXF0: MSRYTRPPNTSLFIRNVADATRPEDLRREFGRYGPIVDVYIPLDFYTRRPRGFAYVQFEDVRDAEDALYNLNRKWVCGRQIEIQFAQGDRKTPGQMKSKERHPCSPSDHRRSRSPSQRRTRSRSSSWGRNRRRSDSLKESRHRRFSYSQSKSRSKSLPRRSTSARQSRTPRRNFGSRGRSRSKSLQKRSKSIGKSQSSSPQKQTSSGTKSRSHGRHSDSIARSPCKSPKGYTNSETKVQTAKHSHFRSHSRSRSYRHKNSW
# UniProt Q8WXE0: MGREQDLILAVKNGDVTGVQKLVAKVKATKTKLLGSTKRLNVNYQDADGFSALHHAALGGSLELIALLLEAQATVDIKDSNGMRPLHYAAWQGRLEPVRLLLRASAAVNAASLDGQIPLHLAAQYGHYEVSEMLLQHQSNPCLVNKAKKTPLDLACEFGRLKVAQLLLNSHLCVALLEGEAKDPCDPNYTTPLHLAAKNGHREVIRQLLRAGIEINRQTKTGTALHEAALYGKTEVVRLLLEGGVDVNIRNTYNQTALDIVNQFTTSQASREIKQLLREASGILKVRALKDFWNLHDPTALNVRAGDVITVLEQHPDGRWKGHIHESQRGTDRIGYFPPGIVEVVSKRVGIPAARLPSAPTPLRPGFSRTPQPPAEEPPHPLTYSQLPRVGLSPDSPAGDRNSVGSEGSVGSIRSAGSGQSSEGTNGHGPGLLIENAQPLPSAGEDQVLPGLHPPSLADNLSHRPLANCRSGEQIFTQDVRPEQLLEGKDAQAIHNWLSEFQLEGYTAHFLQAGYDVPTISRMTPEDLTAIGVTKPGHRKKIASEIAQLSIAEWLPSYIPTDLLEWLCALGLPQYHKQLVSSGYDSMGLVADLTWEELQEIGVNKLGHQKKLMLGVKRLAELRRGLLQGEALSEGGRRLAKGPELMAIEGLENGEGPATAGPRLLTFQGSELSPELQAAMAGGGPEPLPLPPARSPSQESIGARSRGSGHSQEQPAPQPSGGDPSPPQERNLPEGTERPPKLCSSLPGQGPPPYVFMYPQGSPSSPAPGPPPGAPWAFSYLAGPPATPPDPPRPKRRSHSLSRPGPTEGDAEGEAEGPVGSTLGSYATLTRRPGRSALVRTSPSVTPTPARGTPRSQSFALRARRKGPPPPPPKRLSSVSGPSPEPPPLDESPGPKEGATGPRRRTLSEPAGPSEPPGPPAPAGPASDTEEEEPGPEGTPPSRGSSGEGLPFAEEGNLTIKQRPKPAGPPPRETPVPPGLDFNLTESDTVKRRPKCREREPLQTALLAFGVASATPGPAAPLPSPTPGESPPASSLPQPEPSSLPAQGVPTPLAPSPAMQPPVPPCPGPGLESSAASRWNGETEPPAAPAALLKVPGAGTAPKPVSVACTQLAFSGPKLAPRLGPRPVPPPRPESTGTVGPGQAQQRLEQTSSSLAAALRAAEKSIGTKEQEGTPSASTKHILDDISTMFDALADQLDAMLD
# UniProt Q92556, whole entry: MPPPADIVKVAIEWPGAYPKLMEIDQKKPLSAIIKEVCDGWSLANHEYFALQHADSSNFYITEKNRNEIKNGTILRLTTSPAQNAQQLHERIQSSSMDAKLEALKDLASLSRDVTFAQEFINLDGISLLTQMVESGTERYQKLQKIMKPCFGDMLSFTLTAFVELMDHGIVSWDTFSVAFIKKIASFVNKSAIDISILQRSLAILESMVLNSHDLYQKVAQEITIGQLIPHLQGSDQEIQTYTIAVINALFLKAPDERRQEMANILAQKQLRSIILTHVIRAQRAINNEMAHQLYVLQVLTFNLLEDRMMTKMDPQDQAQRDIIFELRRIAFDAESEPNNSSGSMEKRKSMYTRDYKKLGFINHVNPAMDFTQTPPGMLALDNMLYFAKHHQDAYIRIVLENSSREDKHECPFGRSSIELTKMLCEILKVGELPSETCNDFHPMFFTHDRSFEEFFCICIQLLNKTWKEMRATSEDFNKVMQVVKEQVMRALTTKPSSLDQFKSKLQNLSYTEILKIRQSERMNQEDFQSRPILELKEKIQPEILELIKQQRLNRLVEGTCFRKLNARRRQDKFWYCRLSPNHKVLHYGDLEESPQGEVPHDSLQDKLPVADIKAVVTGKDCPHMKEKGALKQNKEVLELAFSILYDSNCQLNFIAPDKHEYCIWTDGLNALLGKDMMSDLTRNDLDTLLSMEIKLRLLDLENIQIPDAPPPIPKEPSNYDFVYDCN
# UniProt Q8WW38: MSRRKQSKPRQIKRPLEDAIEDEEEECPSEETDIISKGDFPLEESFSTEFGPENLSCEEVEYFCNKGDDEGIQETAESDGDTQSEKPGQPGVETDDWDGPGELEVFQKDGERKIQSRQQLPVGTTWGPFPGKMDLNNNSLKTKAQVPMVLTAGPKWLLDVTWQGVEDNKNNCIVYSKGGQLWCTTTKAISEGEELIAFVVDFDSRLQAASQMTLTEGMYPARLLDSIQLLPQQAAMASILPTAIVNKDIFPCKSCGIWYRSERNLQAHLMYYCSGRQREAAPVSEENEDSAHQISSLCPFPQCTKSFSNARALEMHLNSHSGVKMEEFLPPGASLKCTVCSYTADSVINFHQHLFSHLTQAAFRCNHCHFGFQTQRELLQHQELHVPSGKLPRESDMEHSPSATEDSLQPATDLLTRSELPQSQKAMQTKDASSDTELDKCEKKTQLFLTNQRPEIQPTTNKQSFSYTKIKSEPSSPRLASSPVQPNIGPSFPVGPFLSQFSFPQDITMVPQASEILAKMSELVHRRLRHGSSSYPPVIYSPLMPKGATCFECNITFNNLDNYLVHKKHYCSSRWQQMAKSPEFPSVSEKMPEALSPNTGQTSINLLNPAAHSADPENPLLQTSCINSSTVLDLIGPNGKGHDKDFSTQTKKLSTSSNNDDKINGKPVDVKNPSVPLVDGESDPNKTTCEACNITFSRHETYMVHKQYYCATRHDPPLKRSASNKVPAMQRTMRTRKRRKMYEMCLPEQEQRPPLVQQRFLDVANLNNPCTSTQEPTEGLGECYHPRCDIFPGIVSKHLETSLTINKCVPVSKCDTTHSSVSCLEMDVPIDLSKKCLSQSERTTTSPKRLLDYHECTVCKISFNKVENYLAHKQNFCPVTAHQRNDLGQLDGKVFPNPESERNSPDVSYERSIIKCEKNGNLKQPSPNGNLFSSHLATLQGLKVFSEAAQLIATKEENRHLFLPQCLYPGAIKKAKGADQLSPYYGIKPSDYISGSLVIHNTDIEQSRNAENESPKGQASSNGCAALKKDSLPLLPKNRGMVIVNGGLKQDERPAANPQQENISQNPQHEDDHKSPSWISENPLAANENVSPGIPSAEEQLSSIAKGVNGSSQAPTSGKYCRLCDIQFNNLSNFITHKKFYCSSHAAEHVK
# UniProt Q8WYN0: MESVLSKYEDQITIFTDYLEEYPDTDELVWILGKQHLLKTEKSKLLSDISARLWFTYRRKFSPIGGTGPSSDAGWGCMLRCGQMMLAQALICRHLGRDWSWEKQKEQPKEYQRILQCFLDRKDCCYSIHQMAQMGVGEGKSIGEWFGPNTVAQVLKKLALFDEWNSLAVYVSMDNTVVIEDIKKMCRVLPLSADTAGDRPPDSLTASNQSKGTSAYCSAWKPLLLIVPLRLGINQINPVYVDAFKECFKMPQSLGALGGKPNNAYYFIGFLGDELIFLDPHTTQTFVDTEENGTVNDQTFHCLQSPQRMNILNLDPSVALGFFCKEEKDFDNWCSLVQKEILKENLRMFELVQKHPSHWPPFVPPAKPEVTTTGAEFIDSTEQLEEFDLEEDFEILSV
# UniProt Q8TF74: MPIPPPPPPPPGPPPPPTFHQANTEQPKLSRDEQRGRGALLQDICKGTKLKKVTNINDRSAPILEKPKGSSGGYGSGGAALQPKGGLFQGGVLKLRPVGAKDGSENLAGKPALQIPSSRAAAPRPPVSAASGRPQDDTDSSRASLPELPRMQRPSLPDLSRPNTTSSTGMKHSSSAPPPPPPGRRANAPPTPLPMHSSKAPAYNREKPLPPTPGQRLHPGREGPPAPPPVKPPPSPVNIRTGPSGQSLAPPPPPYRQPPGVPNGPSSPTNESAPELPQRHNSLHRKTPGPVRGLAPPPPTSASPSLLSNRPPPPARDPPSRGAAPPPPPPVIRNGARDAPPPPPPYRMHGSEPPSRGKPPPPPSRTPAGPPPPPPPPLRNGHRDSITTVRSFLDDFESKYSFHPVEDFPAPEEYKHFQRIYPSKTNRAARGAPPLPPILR
# UniProt Q8TAD8: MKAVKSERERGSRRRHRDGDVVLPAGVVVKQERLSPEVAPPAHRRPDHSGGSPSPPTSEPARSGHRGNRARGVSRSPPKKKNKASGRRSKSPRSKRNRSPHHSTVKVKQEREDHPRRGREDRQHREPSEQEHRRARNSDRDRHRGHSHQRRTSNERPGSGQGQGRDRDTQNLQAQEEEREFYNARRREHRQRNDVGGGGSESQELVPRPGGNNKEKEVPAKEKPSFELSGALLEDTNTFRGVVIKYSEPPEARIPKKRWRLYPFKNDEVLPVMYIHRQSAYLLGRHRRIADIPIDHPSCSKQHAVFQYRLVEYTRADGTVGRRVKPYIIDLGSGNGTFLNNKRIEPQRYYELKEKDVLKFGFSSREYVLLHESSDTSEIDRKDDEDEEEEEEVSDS
# UniProt Q8TBE0: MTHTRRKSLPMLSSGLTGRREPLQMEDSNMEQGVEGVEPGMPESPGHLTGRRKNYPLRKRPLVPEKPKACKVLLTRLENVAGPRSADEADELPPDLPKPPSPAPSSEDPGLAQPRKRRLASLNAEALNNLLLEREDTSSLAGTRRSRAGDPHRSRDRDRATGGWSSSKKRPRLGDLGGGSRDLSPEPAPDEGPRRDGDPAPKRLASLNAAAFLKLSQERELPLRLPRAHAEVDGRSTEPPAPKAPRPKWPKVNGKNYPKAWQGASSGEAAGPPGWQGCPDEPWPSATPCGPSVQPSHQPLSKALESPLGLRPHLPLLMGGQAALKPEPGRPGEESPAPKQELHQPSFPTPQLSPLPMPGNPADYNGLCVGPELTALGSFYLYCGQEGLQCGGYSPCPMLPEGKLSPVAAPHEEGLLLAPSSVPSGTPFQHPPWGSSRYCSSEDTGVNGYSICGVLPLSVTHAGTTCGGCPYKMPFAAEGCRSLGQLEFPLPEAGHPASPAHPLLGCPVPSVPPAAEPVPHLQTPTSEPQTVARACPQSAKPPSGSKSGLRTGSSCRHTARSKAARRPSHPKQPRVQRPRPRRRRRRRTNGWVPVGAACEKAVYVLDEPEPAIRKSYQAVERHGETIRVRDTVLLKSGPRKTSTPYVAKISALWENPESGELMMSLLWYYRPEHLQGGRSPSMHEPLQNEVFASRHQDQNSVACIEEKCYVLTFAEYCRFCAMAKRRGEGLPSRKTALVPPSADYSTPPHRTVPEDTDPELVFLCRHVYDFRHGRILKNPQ
# UniProt Q8TB37: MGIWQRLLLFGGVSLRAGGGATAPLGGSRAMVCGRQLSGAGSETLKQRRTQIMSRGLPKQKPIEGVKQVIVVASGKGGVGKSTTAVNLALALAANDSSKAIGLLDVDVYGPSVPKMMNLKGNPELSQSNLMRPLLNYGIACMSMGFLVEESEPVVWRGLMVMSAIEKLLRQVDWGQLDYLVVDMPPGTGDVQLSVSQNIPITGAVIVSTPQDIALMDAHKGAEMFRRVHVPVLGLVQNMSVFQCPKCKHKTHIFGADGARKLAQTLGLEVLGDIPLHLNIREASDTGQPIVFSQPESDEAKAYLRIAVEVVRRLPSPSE
# UniProt Q8WVB3: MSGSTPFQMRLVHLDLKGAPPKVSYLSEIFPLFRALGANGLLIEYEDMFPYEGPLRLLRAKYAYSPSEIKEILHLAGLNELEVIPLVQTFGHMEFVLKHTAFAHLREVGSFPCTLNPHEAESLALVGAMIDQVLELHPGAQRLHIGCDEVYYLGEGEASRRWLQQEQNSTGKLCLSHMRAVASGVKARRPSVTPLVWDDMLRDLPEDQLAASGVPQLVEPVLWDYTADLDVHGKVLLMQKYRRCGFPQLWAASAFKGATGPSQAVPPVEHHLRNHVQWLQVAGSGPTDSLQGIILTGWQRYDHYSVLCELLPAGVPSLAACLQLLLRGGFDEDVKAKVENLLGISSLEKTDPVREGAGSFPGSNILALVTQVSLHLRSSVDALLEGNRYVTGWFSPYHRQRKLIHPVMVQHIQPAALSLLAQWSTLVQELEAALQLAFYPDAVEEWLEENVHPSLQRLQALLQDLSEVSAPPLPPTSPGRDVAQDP
# This is one part of the list. Small differences around the control level are noise.
# Compound: Cc1nc(Nc2ncc(C(=O)Nc3c(C)cccc3Cl)s2)cc(N2CCN(CCO)CC2)n1 [dasatinib]
# Assay: log2 fold change of tryptic peptide abundance, ligand vs vehicle (limited proteolysis) (log2 ratio); higher = more trypsin-susceptible (destabilized)
# Conditions: ligand concentration: 5 uM; sample: K562 cleared lysate
row,Target,log2 fold change
1,"UniProt Q92600 (peptide sequence: ENALLELSK, peptide start residue: 36)",-0.132
2,"NOC3L (peptide sequence: MHIAALASAILSDPENNIKK, peptide start residue: 216) (UniProt Q8WTT2)",0.734
3,"RTN4IP1 (peptide sequence: VHAASVNPIDVNMR, peptide start residue: 78) (UniProt Q8WWV3)",-0.228
4,"UniProt Q8WXF0 (peptide sequence: GFAYVQFEDVR, peptide start residue: 52)",-0.0675
5,"GTSF1 (peptide sequence: CRKNHPDVASK, peptide start residue: 37) (UniProt Q8WW33)",0.368
6,"CASKIN2 (peptide sequence: VGLSPDSPAGDR, peptide start residue: 390) (UniProt Q8WXE0)",-0.19
7,"ELMO1 (peptide sequence: DIIFELR, peptide start residue: 322) (UniProt Q92556)",0.409
8,"DGCR8 (peptide sequence: QTSEEKPK, peptide start residue: 583) (UniProt Q8WYQ5)",0.724
9,"ZFPM2 (peptide sequence: GHDKDFSTQTK, peptide start residue: 641) (UniProt Q8WW38)",-0.916
10,"UniProt Q8TCG1 (peptide sequence: KLNESLKEQNEK, peptide start residue: 764)",0.48
11,"ATG4A (peptide sequence: SIGEWFGPNTVAQVLKK, peptide start residue: 141) (UniProt Q8WYN0)",0.873
12,"TRPC4AP (peptide sequence: LHTTSHLHSDFVECQNILK, peptide start residue: 81) (UniProt Q8TEL6)",0.465
13,"PANK1 (peptide sequence: GPVGGSDAAPQR, peptide start residue: 186) (UniProt Q8TE04)",0.0605
14,"MRPS27 (peptide sequence: EKEHYCLADLASLMDKTFER, peptide start residue: 44) (UniProt Q92552)",0.387
15,"WIPF2 (peptide sequence: YSFHPVEDFPAPEEYK, peptide start residue: 400) (UniProt Q8TF74)",0.104
16,"SNIP1 (peptide sequence: YSEPPEAR, peptide start residue: 246) (UniProt Q8TAD8)",0.304
17,"CHMP7 (peptide sequence: EVNSTDWDSK, peptide start residue: 43) (UniProt Q8WUX9)",-0.0953
18,"BAHD1 (peptide sequence: AVYVLDEPEPAIRK, peptide start residue: 601) (UniProt Q8TBE0)",0.332
19,"UniProt Q8WVE0 (peptide sequence: MCTFVPR, peptide start residue: 185)",0.144
20,"GADD45GIP1 (peptide sequence: EQHIAECMAK, peptide start residue: 118) (UniProt Q8TAE8)",0.134
21,"UniProt Q8WTW4 (peptide sequence: TGMSYHELDER, peptide start residue: 358)",0.417
22,"HM13 (peptide sequence: NASDMPETITSR, peptide start residue: 62) (UniProt Q8TCT9)",0.0804
23,"NUBPL (peptide sequence: GLMVMSAIEK, peptide start residue: 158) (UniProt Q8TB37)",0.177
24,"CEP192 (peptide sequence: GIVPDLNSECASKDVLVK, peptide start residue: 343) (UniProt Q8TEP8)",0.265
25,"PHF10 (peptide sequence: SDEVIDLMIK, peptide start residue: 143) (UniProt Q8WUB8)",0.379
26,"UBA3 (peptide sequence: SPAITATLEGK, peptide start residue: 399) (UniProt Q8TBC4)",-0.142
27,"CHTF18 (peptide sequence: LWDLVVFGHERPSR, peptide start residue: 310) (UniProt Q8WVB6)",-0.391
28,"UniProt Q8WVB3 (peptide sequence: YVTGWFSPYHR, peptide start residue: 389)",-0.0204

# Laid out differently: entries from further up.
row | Target | log2 fold change
19 | UniProt Q8WVE0 (peptide sequence: MCTFVPR, peptide start residue: 185) | 0.144
20 | GADD45GIP1 (peptide sequence: EQHIAECMAK, peptide start residue: 118) (UniProt Q8TAE8) | 0.134
